The values below come from paper PMC7242464.

Results are given in words; binding and its absence hold for the method and conditions named. In cells and extracts the contact can be indirect. Some entries that bind do so weakly or less than the wild type.

For the assay, the target named is T1, SET8 (human (endogenous in HUVECs)) (UniProt Q9NQR1).
T1 sequence: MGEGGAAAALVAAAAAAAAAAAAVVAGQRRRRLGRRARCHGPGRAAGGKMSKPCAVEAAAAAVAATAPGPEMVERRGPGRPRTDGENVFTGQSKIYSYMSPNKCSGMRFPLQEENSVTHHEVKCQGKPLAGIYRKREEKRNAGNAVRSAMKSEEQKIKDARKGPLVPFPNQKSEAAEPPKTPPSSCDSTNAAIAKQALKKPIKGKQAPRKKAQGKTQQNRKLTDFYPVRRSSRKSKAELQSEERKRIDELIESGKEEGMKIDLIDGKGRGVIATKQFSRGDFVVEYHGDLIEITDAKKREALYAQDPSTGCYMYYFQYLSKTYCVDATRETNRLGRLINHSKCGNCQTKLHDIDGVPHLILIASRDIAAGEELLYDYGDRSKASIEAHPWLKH
The assay is described as follows: co-IP; endogenous IP from HUVEC whole-cell lysates; primary antibodies and protein A/G Dynabeads at 4 °C overnight; input and IP fractions by western blotting. On the technique in general: In western blotting, separated proteins are transferred to a membrane and probed.

B1: E74-like ETS transcription factor 3 (ELF3) (protein, UniProt P78545 1-371)
chain: MAATCEISNIFSNYFSAMYSSEDSTLASVPPAATFGADDLVLTLSNPQMSLEGTEKASWLGEQPQFWSKTQVLDWISYQVEKNKYDASAIDFSRCDMDGATLCNCALEELRLVFGPLGDQLHAQLRDLTSSSSDELSWIIELLEKDGMAFQEALDPGPFDQGSPFAQELLDDGQQASPYHPGSCGAGAPSPGSSDVSTAGTGASRSSHSSDSGGSDVDLDPTDGKLFPSDGFRDCKKGDPKHGKRKRGRPRKLSKEYWDCLEGKKSKHAPRGTHLWEFIRDILIHPELNEGLMKWENRHEGVFKFLRSEAVAQLWGQKKKNSNMTYEKLSRAMRYYYKREILERVDGRRLVYKFGKNSSGWKEEEVLQSRN
Consider B1, for which the binding result was “binds”.
